Assay results as given in PubChem BioAssay AID2685 (National Center for Advancing Translational Sciences (NCATS), 2010).
This is one part of the list. These are further read-outs of the screen, such as a control signal, another cell line or another target. No call is given for them. Compounds called inactive in the main read-out are mostly missing here. The note in brackets gives the kind of curve behind each potency; many fits are weak.

Test: qHTS Assay for Lipid Storage Modulators in Drosophila S3 Cells;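 as to cell number change: cells counted by Cell Tracker Red CMTPX staining in the red channel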
Conditions: BODIPY lipid droplet fluorescence, 18-24 h; for cell number change: measured here: cell count max response, cells fed with added oleic acid
How it was run: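 Drosophila S3 cells got compounds at several concentrations plus oleic acid (400 uM solution). Laser-scanning cytometry with 488 nm excitation read lipid droplets at 500-530 nm and cells at 575-640 nm. Percent activity was relative to 20 uM Triacsin C.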

[1] = measured here: lipid fluorescence (Fed channel) AC50, cells fed with added oleic acid
[2] = measured here: cell number channel AC50, cells fed with added oleic acid

Row | SMILES | cell number change | AC50 [1] | AC50 [2]
1 | Cc1[nH]n(-c2ccc([N+](=O)[O-])cc2)c(=O)c1C=NCCN1CCN(C(=O)c2ccc(Br)cc2)CC1 | -8.84% | 0.058 µM [falling, full curve, poor fit] | –
2 | Nc1nnc(SCC(=O)Nc2cccc(Cl)c2)s1 | -17.2% | 0.231 µM [rising, full curve, poor fit] | –
3 | C=CCn1c(SCC(=O)c2ccc(OC)cc2)nnc1C(C)NC(=O)c1cccs1 (configuration not stated) | 2.42% | – | –
4 | COc1ccc(OCC(=O)N2CCN(c3nnc(-c4ccc(C)cc4)c4ccccc34)CC2)cc1 | -12.5% | 16.4 µM [falling, partial curve, poor fit] | –
5 | CC(C)(C)c1nn(-c2ccccc2)c2[nH]c(=O)c(CNc3ccc4c(c3)OCCO4)cc12 | -50.8% | 0.164 µM [rising, full curve, poor fit] | 1.3 µM [falling, partial curve]
6 | COc1cccc(C(C)NC(=O)Nc2cc(Cl)ccc2OC)c1 (configuration not stated) | -0.769% | 0.891 µM [rising, partial curve] | –
7 | CC(=O)Nc1cccc(Oc2cnc3ccccc3n2)c1 | 16.3% | 29.1 µM [rising, single point] | –
8 | Cc1nc2ccc(NC(=O)CSc3nnc(C)s3)cc2[nH]1 | 1.9% | – | –
9 | O=C(c1cccc(S(=O)(=O)Nc2ccc(F)cc2)c1)N1CCCC1 | -1.24% | – | –
10 | CCn1nc(C)c(CN2CCC(n3nccc3NC(=O)c3ccccc3OC)CC2)c1C | 19.8% | – | –
11 | N#Cc1nc(-c2ccc(F)cc2)oc1NCc1ccco1 | 6.82% | – | 0.0731 µM [falling, full curve, poor fit]
12 | COc1ccc(-c2cc3ccccc3oc2=O)cc1NC(=O)c1cccnc1 | 19.2% | – | –
13 | Cc1cc(NC(=O)CCC(=O)N(CC(=O)NC2CCCC2)Cc2ccc(F)cc2)no1 | – | 0.651 µM [falling, single point] | –
14 | CN(C(=O)c1cccc(S(=O)(=O)N2CCOCC2)c1)c1c(N)n(Cc2ccccc2)c(=O)[nH]c1=O | 36.1% | 13 µM [rising, partial curve, poor fit] | 16.4 µM [rising, single point]
15 | COc1ccccc1-n1c2c(cc(C(=O)N3CCC(C)CC3)c1=O)C(=O)CC(C)(C)C2 | -36.9% | 9.2 µM [falling, partial curve] | 5.8 µM [falling, partial curve, poor fit]
16 | COc1ccccc1C(=O)C1CCCN(C(=O)c2ccccc2C(C)=O)C1 (configuration not stated) | 9.04% | 3.66 µM [falling, single point] | –
17 | Cc1cc(=O)n(C)c(=O)n1CCCCCCOc1cccc([N+](=O)[O-])c1 | -11.4% | 32.6 µM [falling, single point] | –
18 | COc1ccccc1N/C(=N/c1nc(C)cc(C)n1)NC(C)=O | -6.27% | 0.82 µM [rising, full curve, poor fit] | –
19 | Cn1c(=O)c(C(=O)CN2CC(=O)Nc3ccccc32)c(N)n(Cc2ccccc2)c1=O | 57.6% | 25.9 µM [rising, single point] | 20.6 µM [rising, single point]

Row | SMILES | cell number change | AC50 [1] | AC50 [2]
20 | S=c1nc(-c2ccccc2Cl)n(Cc2cccnc2)c2c1CCCC2 | 5.59% | 6.51 µM [rising, single point] | 6.51 µM [rising, single point]
21 | COc1cccc(C2=CC(c3ccccc3)n3nnnc3N2)c1 (configuration not stated) | – | 32.6 µM [rising, single point] | –
22 | O=C(CCCN=C1NS(=O)(=O)c2ccccc21)OCC(=O)c1ccccc1 | 13.5% | – | –
23 | Cc1ccc(NC(=O)C(C)OC(=O)Cn2[nH]c(=O)c3ccccc3c2=O)cc1 (configuration not stated) | 2.71% | 9.2 µM [rising, partial curve] | –
24 | CCc1ccc2c(c1)C1(C(=O)N2)N2CCCC2C(C(=O)c2ccc3ccccc3c2)C12C(=O)Nc1ccccc12 (configuration not stated) | -39.2% | 18.4 µM [falling, single point] | 29.1 µM [falling, single point]
25 | O=C(CN1CCc2cc3c(cc2C1)OCCCO3)Nc1cccc(Br)c1 | -29.8% | 29.1 µM [falling, single point] | –
26 | Cc1cc(C)n(-c2nc(-c3cccc(Cl)c3)cs2)n1 | 85.9% | 25.9 µM [rising, partial curve, poor fit] | 25.9 µM [rising, partial curve, poor fit]
27 | O=C(Nc1ncc([N+](=O)[O-])s1)C1COc2ccccc2O1 (configuration not stated) | -60.5% | 23.1 µM [falling, partial curve, poor fit] | 29.1 µM [falling, single point]
28 | Cc1cccc(-c2ocnc2C(=O)N2CCN(C(=O)c3cccs3)CC2)c1 | 35.5% | – | –
29 | COc1cc(OC)cc(-c2cc3ccc(OC)cc3cn2)c1 | 7.57% | 1.16 µM [rising, partial curve] | –
30 | CSCCC(NC(=O)COc1ccccc1)C(=O)Nc1ccc(C)cc1 (configuration not stated) | 3.77% | 32.6 µM [falling, single point] | –
31 | O=C(C1=C(O)C(=O)N(CCCN2CCOCC2)C1c1ccccn1)c1cc2ccccc2o1 (configuration not stated) | -0.476% | 0.092 µM [falling, full curve, poor fit] | –
32 | C=CCn1c(SCC(=O)c2c(C)[nH]c3ccccc23)nnc1-c1ccncc1 | – | – | 7.31 µM [falling, single point]
33 | COc1ccc(Nc2cc(C)nc3ccc(OC)cc23)cc1 | -23.1% | 14.6 µM [falling, partial curve, poor fit] | –
34 | O=C(Cn1cnc2c(oc3ccccc32)c1=O)N1CCCC1 | 20.5% | 0.82 µM [rising, full curve] | –
35 | Cc1cc(NS(=O)(=O)c2ccccc2)n(-c2ccccc2)n1 | 73.1% | 6.51 µM [rising, single point] | 13 µM [rising, partial curve]
36 | CCC(=O)N1c2ccc(S(=O)(=O)NCc3ccco3)cc2CC1C (configuration not stated) | 6.75% | 0.0651 µM [falling, full curve, poor fit] | –
37 | O=C1c2ccccc2C(=O)N1C(CO)C(O)c1ccc([N+](=O)[O-])cc1 (configuration not stated) | 15.3% | – | –

Random excerpt: 2 records from the list, in no set order.
Row | SMILES | cell number change | AC50 [1] | AC50 [2]
24 | CCc1ccc2c(c1)C1(C(=O)N2)N2CCCC2C(C(=O)c2ccc3ccccc3c2)C12C(=O)Nc1ccccc12 (configuration not stated) | -39.2% | 18.4 µM [falling, single point] | 29.1 µM [falling, single point]
23 | Cc1ccc(NC(=O)C(C)OC(=O)Cn2[nH]c(=O)c3ccccc3c2=O)cc1 (configuration not stated) | 2.71% | 9.2 µM [rising, partial curve] | –
